Like-named read-outs stand apart in the source and are kept apart here. Not every detail of the peptide structures is certain; ends, links or a residue may be inferred. At least one compound was matched to its structure with a doubt left. Where a SMILES comes first, the peptide text is derived from it. Bridges are numbered along the chain shown (N, C = ends). [ ]: non-standard residue; d: D form. The star is where a group is joined. NMeS = CN[C@@H](CO)C(=O)O; Bn = c1ccc(C*)cc1
Assays:
[1] = target: T1, human TPO-R (transfected Ba/F3 cells) (Homo sapiens, UniProt P40238); assay: Thrombopoietin dependent cell proliferation assay (MTT), TPO-R transfected Ba/F3 cells; format: cell-based
T1 construct: Murine IL-3 dependent Ba/F3 cells were transfected with full length human TPO-R; expressed in transfected cells; host or cells: murine Ba/F3 cells
T1 sequence (P40238 26-635): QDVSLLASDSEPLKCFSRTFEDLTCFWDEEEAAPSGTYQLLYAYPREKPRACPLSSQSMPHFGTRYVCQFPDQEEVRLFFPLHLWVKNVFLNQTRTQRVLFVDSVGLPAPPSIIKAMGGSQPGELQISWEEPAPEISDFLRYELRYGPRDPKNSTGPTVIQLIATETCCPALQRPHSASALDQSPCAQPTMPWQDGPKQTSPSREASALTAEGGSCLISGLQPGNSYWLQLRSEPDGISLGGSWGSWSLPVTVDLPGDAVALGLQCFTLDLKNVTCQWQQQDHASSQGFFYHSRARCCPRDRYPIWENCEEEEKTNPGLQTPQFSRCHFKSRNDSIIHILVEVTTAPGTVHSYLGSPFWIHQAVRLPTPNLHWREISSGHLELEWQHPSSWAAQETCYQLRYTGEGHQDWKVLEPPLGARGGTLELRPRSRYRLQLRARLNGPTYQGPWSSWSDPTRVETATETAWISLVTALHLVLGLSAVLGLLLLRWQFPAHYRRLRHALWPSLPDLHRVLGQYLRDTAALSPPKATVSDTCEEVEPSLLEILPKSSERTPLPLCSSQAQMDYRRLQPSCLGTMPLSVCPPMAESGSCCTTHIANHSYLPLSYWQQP

TPO-R = target: T2, TPO-R (Homo sapiens, UniProt P40238); assay: Competition binding assay (equilibrium binding ELISA, MBP-TPO156 tracer) on immobilized TPO-R
T2 construct: made in house
T2 sequence (P40238 26-491 limits assumed): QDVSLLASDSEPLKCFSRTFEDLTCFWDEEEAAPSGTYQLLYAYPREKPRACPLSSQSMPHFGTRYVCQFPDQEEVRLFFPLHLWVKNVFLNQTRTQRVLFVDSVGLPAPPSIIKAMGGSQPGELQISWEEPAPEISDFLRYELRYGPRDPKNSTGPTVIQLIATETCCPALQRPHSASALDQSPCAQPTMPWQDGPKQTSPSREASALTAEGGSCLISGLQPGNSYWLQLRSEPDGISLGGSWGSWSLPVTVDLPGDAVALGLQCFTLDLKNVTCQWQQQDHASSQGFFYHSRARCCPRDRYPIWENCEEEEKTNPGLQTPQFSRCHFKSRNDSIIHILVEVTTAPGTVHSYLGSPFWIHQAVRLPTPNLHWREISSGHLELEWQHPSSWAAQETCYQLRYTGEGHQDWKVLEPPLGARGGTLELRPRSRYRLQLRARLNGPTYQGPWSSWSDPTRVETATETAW
Method: A variety of methods can be used to evaluate IC50 values. For example, an equilibrium binding ELISA assay, using either MBP-TPO or lacI-peptide tracer, was used to determine whether the peptides inhibit the binding of TPO to the extracellular domain of the TPO receptor. Typically, the IC50 value were determined using the free peptide. The IC50 value can be determined using the free peptide, which optionally can be C-terminally amidated, or can be prepared as an ester or other carboxy amide.
Binding affinities of chemically synthesized peptides for TPO-R were measured in a competition binding assay. The wells of a microtiter plate were coated with 1 mg streptavidin, blocked with PBS/1% BSA, followed by 50 ng of biotinylated anti-receptor immobilizing antibody (Ab179). The wells were then treated with a 1:10 dilution of soluble TPO-R harvest. Various concentrations of peptide or peptide mimetic were mixed with a constant amount of a truncated form of TPO consisting of residues 1-156 fused to the C-terminus of maltose binding protein (MBP-TPO156). The peptide MBP-TPO156 mixtures were added to the TPO-R coated wells, incubated for 2 hours at 4° C. and then washed with PBS. The amount of MBP-TPO156 that was bound at equilibrium was measured by adding a rabbit anti-sera directed against MBP, followed by alkaline phosphatase conjugated goat anti-rabbit IgG. The amount of alkaline phosphatase in each well was then determined using standard methods.
The assay is conducted over a range of peptide concentrations and the results are graphed such that the y axis represents the amount of bound MBP-TPO156 and the x axis represents the concentration of peptide or peptide mimetic.

[2] = Table 7, dimer compounds, read-out: EC50 (nM) Prolif.
[3] = Table 5, substitutions in cyclized compound, read-out: EC50 (nM) Cell Prolif.

Structure (SMILES)	EC50 [1, 2]	IC50 (TPO-R; Table 5, read-out: IC50)	EC50 [1, 3]	also measured
CC[C@H](C)[C@@H]1NC(=O)[C@H](Cc2c[nH]c3ccccc23)NC(=O)[C@H](CCC(=O)O)NC(=O)[C@H](CCCNC(=N)N)NC(=O)[C@H](CC(C)C)NC(=O)[C@H]([C@@H](C)O)NC(=O)[C@@H]2CCCN2C(=O)CNC(=O)[C@H](CC(=O)O)NC(=O)[C@H](C)NC(=O)CSC[C@@H](C(=O)NCC(N)=O)NC(=O)[C@H](Cc2ccccc2)NC(=O)[C@H](CO)NC1=O [C-term. Gly addition] (HELM PEPTIDE1{[O=C(C[*:3])[*:2]].A.D.G.P.T.L.R.E.W.I.S.F.C.G.[am]}$PEPTIDE1,PEPTIDE1,1:R3-14:R3$$$V2.0)				EC50 ([1]; Table 6, read-out: EC50 (nM) Cell Prolif.): < 500 nM
CC[C@H](C)[C@@H]1NC(=O)[C@H](Cc2c[nH]c3ccccc23)NC(=O)[C@H](CCC(=O)O)NC(=O)[C@H](CCCNC(=N)N)NC(=O)[C@H](CC(C)C)NC(=O)[C@H]([C@@H](C)O)NC(=O)[C@@H]2CCCN2C(=O)CNC(=O)[C@H](CC(=O)O)NC(=O)[C@H](C)NC(=O)[C@@H](N)CSSC[C@@H](C(N)=O)NC(=O)[C@H](Cc2cccc3ccccc23)NC(=O)[C@H](CO)NC1=O [F-(1-Nal)] (HELM PEPTIDE1{C.A.D.G.P.T.L.R.E.W.I.S.[O=C([C@H](Cc1cccc2ccccc12)N[*:1])[*:2]].C.[am]}$PEPTIDE1,PEPTIDE1,1:R3-14:R3$$$V2.0)		≤ 500 nM	< 500 nM	
CC[C@H](C)[C@@H]1NC(=O)[C@H](Cc2c[nH]c3ccccc23)NC(=O)[C@H](CCC(=O)O)NC(=O)[C@H](CCCNC(=N)N)NC(=O)[C@H](CC(C)C)NC(=O)[C@H]([C@@H](C)O)NC(=O)[C@@H]2CCCN2C(=O)CNC(=O)[C@H](CC(=O)O)NC(=O)[C@H](C)NC(=O)[C@@H](N)CSSC[C@@H](C(N)=O)NC(=O)[C@H](C(c2ccccc2)c2ccccc2)NC(=O)[C@H](CO)NC1=O [F-(DiPh-Ala)] (HELM PEPTIDE1{C.A.D.G.P.T.L.R.E.W.I.S.[O=C([C@@H](N[*:1])C(c1ccccc1)c1ccccc1)[*:2]].C.[am]}$PEPTIDE1,PEPTIDE1,1:R3-14:R3$$$V2.0)		≤ 500 nM	< 500 nM	
CC[C@H](C)[C@@H]1NC(=O)[C@H](Cc2c[nH]c3ccccc23)NC(=O)[C@H](CCC(=O)O)NC(=O)[C@H](CCCNC(=N)N)NC(=O)[C@H](CC(C)C)NC(=O)[C@H]([C@@H](C)O)NC(=O)[C@@H]2CCCN2C(=O)CNC(=O)[C@H](CC(=O)O)NC(=O)[C@H](C)NC(=O)[C@@H](N)CSSC[C@@H](C(N)=O)NC(=O)[C@H](Cc2ccccc2)N(C)C(=O)[C@H](CO)NC1=O [F-(N-Me-Phe)] (HELM PEPTIDE1{C.A.D.G.P.T.L.R.E.W.I.S.[meF].C.[am]}$PEPTIDE1,PEPTIDE1,1:R3-14:R3$$$V2.0)			< 500 nM	
CC[C@H](C)[C@@H]1NC(=O)[C@H](Cc2c[nH]c3ccccc23)NC(=O)[C@H](CCC(=O)O)NC(=O)[C@H](CCCNC(=N)N)NC(=O)[C@H](CC(C)C)NC(=O)[C@H]([C@@H](C)O)NC(=O)[C@@H]2CCCN2C(=O)CNC(=O)[C@H](CC(=O)O)NC(=O)[C@H](C)NC(=O)[C@@H](NC(=O)CNC(=O)CN)CSSC[C@@H](C(=O)NCC(=O)NCC(=O)N[C@@H](CCCCN)C(=O)O)NC(=O)[C@H](Cc2ccccc2)NC(=O)[C@H](CO)NC1=O [G G C A D G P T L R E W I S F C G G K] (HELM PEPTIDE1{G.G.C.A.D.G.P.T.L.R.E.W.I.S.F.C.G.G.K}$PEPTIDE1,PEPTIDE1,3:R3-16:R3$$$V2.0; N-terminus and C-terminus assumed)				IC50 (TPO-R; Table 3, read-out: Affinity (IC50)): ≤ 500 nM
CC[C@H](C)[C@@H]1NC(=O)[C@H](Cc2c[nH]c3ccccc23)NC(=O)[C@H](CCC(=O)O)NC(=O)[C@H](CCCNC(=N)N)NC(=O)[C@H](CC(C)C)NC(=O)[C@H]([C@@H](C)O)NC(=O)[C@@H]2CCCN2C(=O)CNC(=O)[C@H](CC(=O)O)NC(=O)[C@H](C)NC(=O)[C@@H](N)CSSC[C@@H](C(N)=O)NC(=O)[C@H](Cc2ccccc2)NC(=O)[C@H](CC(C)C)N(C)C1=O [S-(N-Me-Leu)] (HELM PEPTIDE1{C.A.D.G.P.T.L.R.E.W.I.[meL].F.C.[am]}$PEPTIDE1,PEPTIDE1,1:R3-14:R3$$$V2.0)			< 200000 nM	
CC[C@H](C)[C@@H]1NC(=O)[C@H](Cc2c[nH]c3ccccc23)NC(=O)[C@H](CCC(=O)O)NC(=O)[C@H](CCCNC(=N)N)NC(=O)[C@H](CC(C)C)NC(=O)[C@H]([C@@H](C)O)NC(=O)[C@@H]2CCCN2C(=O)CNC(=O)[C@H](CC(=O)O)NC(=O)[C@H](C)NC(=O)[C@@H](N)CSSC[C@@H](C(N)=O)NC(=O)[C@H](Cc2ccccc2)NC(=O)[C@H](COCc2ccccc2)N(C)C1=O [S-[N-Me-Ser(Bzl)]] (H-CADGPTLREWI[NMeS](Bn)FC-NH2; disulfide 1-14)		≤ 200000 nM		

Continued, in another order:

EC50 [1, 2]	IC50 (TPO-R; Table 5, read-out: IC50)	EC50 [1, 3]	Structure (SMILES)	also measured
< 500 nM			CC[C@H](C)[C@H](NC(=O)[C@H](Cc1c[nH]c2ccccc12)NC(=O)[C@H](CCC(=O)O)NC(=O)[C@H](CCCNC(=N)N)NC(=O)[C@H](CC(C)C)NC(=O)[C@@H](NC(=O)[C@@H]1CCCN1C(=O)CNC(=O)[C@H](CC(=O)O)NC(=O)[C@H](C)NC(C)=O)[C@@H](C)O)C(=O)N[C@@H](CO)C(=O)N[C@@H](Cc1ccccc1)C(=O)N[C@@H](CSSC[C@H](NC(=O)[C@H](Cc1ccccc1)NC(=O)[C@H](CO)NC(=O)[C@@H](NC(=O)[C@H](Cc1c[nH]c2ccccc12)NC(=O)[C@H](CCC(=O)O)NC(=O)[C@H](CCCNC(=N)N)NC(=O)[C@H](CC(C)C)NC(=O)[C@@H](NC(=O)[C@@H]1CCCN1C(=O)CNC(=O)[C@H](CC(=O)O)NC(=O)[C@H](C)NC(C)=O)[C@@H](C)O)[C@@H](C)CC)C(N)=O)C(N)=O (HELM PEPTIDE1{[ac].A.D.G.P.T.L.R.E.W.I.S.F.C.[am]}|PEPTIDE2{[ac].A.D.G.P.T.L.R.E.W.I.S.F.C.[am]}$PEPTIDE1,PEPTIDE2,14:R3-14:R3$$$V2.0)	
< 500 nM			CC[C@H](C)[C@H](NC(=O)[C@H](Cc1c[nH]c2ccccc12)NC(=O)[C@H](CCC(=O)O)NC(=O)[C@H](CCCNC(=N)N)NC(=O)[C@H](CC(C)C)NC(=O)[C@@H](NC(=O)[C@@H]1CCCN1C(=O)CNC(C)=O)[C@@H](C)O)C(=O)N[C@@H](CO)C(=O)N[C@@H](Cc1ccccc1)C(=O)N[C@@H](CSSC[C@H](NC(=O)[C@H](Cc1ccccc1)NC(=O)[C@H](CO)NC(=O)[C@@H](NC(=O)[C@H](Cc1c[nH]c2ccccc12)NC(=O)[C@H](CCC(=O)O)NC(=O)[C@H](CCCNC(=N)N)NC(=O)[C@H](CC(C)C)NC(=O)[C@@H](NC(=O)[C@@H]1CCCN1C(=O)CNC(C)=O)[C@@H](C)O)[C@@H](C)CC)C(N)=O)C(N)=O (HELM PEPTIDE1{[ac].G.P.T.L.R.E.W.I.S.F.C.[am]}|PEPTIDE2{[ac].G.P.T.L.R.E.W.I.S.F.C.[am]}$PEPTIDE1,PEPTIDE2,12:R3-12:R3$$$V2.0)	
< 500 nM			CC[C@H](C)[C@H](NC(=O)[C@H](Cc1c[nH]c2ccccc12)NC(=O)[C@H](CCC(=O)O)NC(=O)[C@H](CCCNC(=N)N)NC(=O)[C@H](CC(C)C)NC(=O)[C@@H](NC(=O)[C@@H]1CCCN1C(C)=O)[C@@H](C)O)C(=O)N[C@@H](CO)C(=O)N[C@@H](Cc1ccccc1)C(=O)N[C@@H](CSSC[C@H](NC(=O)[C@H](Cc1ccccc1)NC(=O)[C@H](CO)NC(=O)[C@@H](NC(=O)[C@H](Cc1c[nH]c2ccccc12)NC(=O)[C@H](CCC(=O)O)NC(=O)[C@H](CCCNC(=N)N)NC(=O)[C@H](CC(C)C)NC(=O)[C@@H](NC(=O)[C@@H]1CCCN1C(C)=O)[C@@H](C)O)[C@@H](C)CC)C(N)=O)C(N)=O (HELM PEPTIDE1{[ac].P.T.L.R.E.W.I.S.F.C.[am]}|PEPTIDE2{[ac].P.T.L.R.E.W.I.S.F.C.[am]}$PEPTIDE1,PEPTIDE2,11:R3-11:R3$$$V2.0)	
